# According to PubChem BioAssay AID328 (DTP/NCI, 2004):
# The list does not hold the whole screen: it gathers tests that were run many times, whatever their T/C, doses with no T/C, and many T/C values between a quarter and a half above the control. Other doses and runs of a compound stand elsewhere. T/C gives the treated animals as a percentage of the vehicle group. Some entries give survivors of the animals treated and no T/C: the source files T/C as zero there, which appears to mark a toxic dose or a test without result, not a measured value. Some survivor counts are full or nearly so, which does not show that the dose was tolerated: survival well below the control is almost never listed, so the zero probably covers shortened survival too. Counts of survivors are from the toxicity check (mostly the fifth day) where no day follows; animals may have died later. Schedules are NCI's codes, taken here to give the interval after Q, in days (D) or hours (H), and the number of doses after X. Where survival is the endpoint, the PubChem record calls one and a half times the control and up active, and a quarter to a half above the control has no call in these data; cut-offs in other NCI protocols can differ. Some entries were tested several times; their values stand side by side, smallest first. Some T/C values are followed by the survivors on the day toxicity was checked, most often the fifth; without a count, all were alive then.
# Tested on: BDF1 mice, P388 leukemia ip, median survival T/C
# Experiment: NCI In Vivo Anticancer Drug Screen. Data for tumor model P388 Leukemia (intraperitoneal) in B6D2F1 (BDF1) mice
# Settings: T/C endpoint: median survival time, higher T/C = longer survival
# Experimental: The antitumor activity of compounds was measured in mice bearing transplantable tumors. Survival or tumor size were measured and the results are expressed as the measurement made in the treated group (T) divided by the measurement made in the vehicle treated control group (C). The tumor model used in this assay is P388 Leukemia (intraperitoneal) in B6D2F1 (BDF1) mice
# [1] = dose: 50.0 mg/kg/injection, schedule: Q01DX009 (ip), vehicle: saline with Tween-80
# [2] = dose: 75.0 mg/kg/injection, schedule: Q01DX009 (ip), vehicle: saline with Tween-80
# [3] = dose: 100.0 mg/kg/injection, schedule: Q01DX009 (ip), vehicle: saline
# [4] = dose: 400.0 mg/kg/injection, schedule: Q04DX003 (ip), vehicle: Klucel (hydroxypropylcellulose) (HPC)
# [5] = dose: 400.0 mg/kg/injection, schedule: Q04DX003 (ip), vehicle: saline
# [6] = dose: 100.0 mg/kg/injection, schedule: Q01DX009 (ip), vehicle: saline with Tween-80
# [7] = dose: 200.0 mg/kg/injection, schedule: Q01DX009 (ip), vehicle: saline with Tween-80
# [8] = dose: 400.0 mg/kg/injection, schedule: Q04DX003 (ip), vehicle: saline with Tween-80
# [9] = dose: 100.0 mg/kg/injection, schedule: Q04DX003 (ip), vehicle: saline with Tween-80
# [10] = dose: 400.0 mg/kg/injection, schedule: Q01DX009 (ip), vehicle: saline with Tween-80
# [11] = dose: 100.0 mg/kg/injection, schedule: Q01DX009 (ip), vehicle: Klucel (hydroxypropylcellulose) (HPC)
# [12] = dose: 200.0 mg/kg/injection, schedule: Q01DX009 (ip), vehicle: Klucel (hydroxypropylcellulose) (HPC)
# [13] = dose: 25.0 mg/kg/injection, schedule: Q01DX009 (ip), vehicle: saline
smiles,measurement,setting,value
Cc1cc(NC(=O)NCc2ccc(N3C(N)=NC(N)=NC3(C)C)cc2)ccc1S(=O)(=O)F,T/C,"dose: 7.2 mg/kg/injection, schedule: Q01DX009 (ip), vehicle: saline",142 % of control
same,T/C,"dose: 11.0 mg/kg/injection, schedule: Q01DX009 (ip), vehicle: saline",129 % of control
same,T/C,"dose: 16.0 mg/kg/injection, schedule: Q01DX009 (ip), vehicle: saline",129 % of control
same,T/C,"dose: 35.0 mg/kg/injection, schedule: Q01DX009 (ip), vehicle: saline with Tween-80",131 % of control
same,T/C,[1],131 % of control
same,T/C,"dose: 65.0 mg/kg/injection, schedule: Q04DX003 (ip), vehicle: saline with Tween-80",145 % of control
same,T/C,[2],145 % of control
same,survivor count,[3],5 of 6
same,T/C,"dose: 200.0 mg/kg/injection, schedule: Q04DX003 (ip), vehicle: alcohol",135 % of control
same,T/C,"dose: 264.0 mg/kg/injection, schedule: Q04DX003 (ip), vehicle: Klucel (hydroxypropylcellulose) (HPC)",140 % of control
same,T/C,[4],140 % of control
same,survivor count,[5],2 of 6
OC(CC1CCCCN1)c1ccccc1 (centres undefined),survivor count,[6],1 of 6
same,survivor count,[7],0 of 6
CCN(CC)CCNc1ncnc2c1cnn2-c1ccc(Cl)cc1,survivor count,[8],1 of 6
CCCCCCCCCCCCCCCC[N+](C)(C)C(C)c1ccc(OC)cc1 (centres undefined),survivor count,"dose: 12.5 mg/kg/injection, schedule: Q04DX003 (ip), vehicle: saline with Tween-80",6 of 6
same,survivor count,"dose: 25.0 mg/kg/injection, schedule: Q04DX003 (ip), vehicle: saline with Tween-80",4 of 6
same,survivor count,[9],0 of 6
same,survivor count,"dose: 200.0 mg/kg/injection, schedule: Q04DX003 (ip), vehicle: saline with Tween-80",0 of 6
same,survivor count,[8],0 of 6
CC(=O)Nc1c(Cl)c(Cl)c2c(c1Cl)C(=O)c1cc(Cl)ccc1-2,survivor count,[7],5 of 6
same,survivor count,[10],6 of 6
COc1ccc(C2CCc3cc(OC)c(OC)cc3C2NC=O)cc1OC (centres undefined),survivor count,"dose: 20.0 mg/kg/injection, schedule: Q01DX009 (ip), vehicle: saline with Tween-80",6 of 6
same,survivor count,"dose: 40.0 mg/kg/injection, schedule: Q01DX009 (ip), vehicle: saline with Tween-80",6 of 6
same,survivor count,"dose: 80.0 mg/kg/injection, schedule: Q01DX009 (ip), vehicle: saline with Tween-80",6 of 6
O=C(NCCCl)Oc1c(Cl)cc(Cl)cc1Cl,T/C,"dose: 50.0 mg/kg/injection, schedule: Q01DX005 (ip), vehicle: Klucel (hydroxypropylcellulose) (HPC)",136 % of control
same,survivor count,"dose: 100.0 mg/kg/injection, schedule: Q01DX005 (ip), vehicle: Klucel (hydroxypropylcellulose) (HPC)",3 of 6
same,survivor count,"dose: 200.0 mg/kg/injection, schedule: Q01DX005 (ip), vehicle: Klucel (hydroxypropylcellulose) (HPC)",0 of 6
Cc1ccc(C)c(C(C)NC2=NCCO2)c1 (centres undefined),survivor count,[9],2 of 6
COc1ccc(C(=O)CC(c2ccc3c(c2)OCO3)c2c(O)c3ccccc3oc2=O)cc1OC (centres undefined),survivor count,[10],5 of 6
C=C(Cl)CSCCS,T/C,"dose: 100.0 mg/kg/injection, schedule: Q01DX009 (ip), vehicle: acetone",136 % of control
CC(=O)OC1C2(CC3N4C(=O)C5(CO)SSC4(CC31O)C(=O)N5C)OC(C)C(C)(C)C2=O (centres undefined),survivor count,"dose: 25.0 mg/kg/injection, schedule: Q01DX009 (oral), vehicle: saline",1 of 6
CC(NSc1ccccc1[N+](=O)[O-])C(=O)O (centres undefined),survivor count,[7],0 of 6
Cc1c(CCl)c(C)c(CCl)c(C)c1CCl,survivor count,"dose: 200.0 mg/kg/injection, schedule: Q04DX003 (ip), vehicle: Klucel (hydroxypropylcellulose) (HPC)",4 of 6
same,survivor count,[4],6 of 6
C=CCc1ccccc1OC,survivor count,[7],3 of 6
C[C@@H]1C[C@@]2(C)[C@@H](CC[C@@H]3[C@@H]2CC[C@]2(C)[C@@H](O)CC[C@@H]32)CC1=O,survivor count,"dose: 50.0 mg/kg/injection, schedule: Q01DX009 (ip), vehicle: Klucel (hydroxypropylcellulose) (HPC)",6 of 6
same,survivor count,[11],6 of 6
same,survivor count,[12],6 of 6
COc1cc(NS(C)(=O)=O)ccc1Nc1c2cccc(C)c2nc2c(C)cccc12,T/C,"dose: 0.52 mg/kg/injection, schedule: Q01DX009 (ip), vehicle: saline",126 % of control
same,T/C,"dose: 0.78 mg/kg/injection, schedule: Q01DX009 (ip), vehicle: saline",141 % of control
same,survivor count,"dose: 50.0 mg/kg/injection, schedule: Q01DX009 (ip), vehicle: saline",6 of 6
same,survivor count,[3],6 of 6
same,survivor count,"dose: 200.0 mg/kg/injection, schedule: Q01DX009 (ip), vehicle: saline",6 of 6
same,survivor count,[8],4 of 6
Nc1ccc(/C=C2\C=Cc3ccccc32)cc1,survivor count,[2],6 of 6
Cc1cc(N(CCCl)CCCl)ccc1C=Nc1ccc(F)cc1,T/C,"dose: 264.0 mg/kg/injection, schedule: Q04DX003 (ip), vehicle: saline with Tween-80",141 % of control
CC(Br)(C(Br)c1ccccc1)[N+](=O)[O-] (centres undefined),survivor count,[11],2 of 6
same,survivor count,[12],0 of 6
O=C(O)C(=O)c1ccc(-c2ccccc2)cc1,survivor count,"dose: 225.0 mg/kg/injection, schedule: Q01DX009 (ip), vehicle: saline with Tween-80",2 of 6
OCC1C2CCC(C2)C1CO (centres undefined),survivor count,"dose: 170.0 mg/kg/injection, schedule: Q01DX009 (ip), vehicle: saline",0 of 6
same,survivor count,"dose: 255.0 mg/kg/injection, schedule: Q01DX001 (ip), vehicle: Klucel (hydroxypropylcellulose) (HPC)",2 of 6
same,survivor count,"dose: 385.0 mg/kg/injection, schedule: Q01DX001 (ip), vehicle: Klucel (hydroxypropylcellulose) (HPC)",1 of 6
CC1(C)OCC(C2OC3OC(C)(C)OC3C2OP(=O)(N2CC2)N2CC2)O1 (centres undefined),survivor count,[10],0 of 6
Cc1n(Cc2ccccc2)c2c([n+]1C)C(=O)c1ccccc1C2=O,survivor count,"dose: 4.0 mg/kg/injection, schedule: Q01DX010 (ip), vehicle: saline",1 of 6
CN(C)N=Nc1ccccc1Cl,T/C,[1],126 % of control
same,survivor count,[7],0 of 6
CN(N=O)C(=O)Nc1ccc(C(=O)O)cc1,survivor count,"dose: 225.0 mg/kg/injection, schedule: Q04DX003 (ip), vehicle: saline with Tween-80",4 of 6
COc1cc(OC)c(OC)cc1/C=C/c1cc[n+](C)c2ccccc12,T/C,[13],130 % of control
same,survivor count,[13],6 of 6
O=C(O)COCC(F)(F)C(F)(F)C(F)(F)COCC(=O)O,T/C,[5],138 % of control
COc1cc(C#N)ccc1O,survivor count,"dose: 400.0 mg/kg/injection, schedule: Q01DX009 (ip), vehicle: gum acacia",3 of 6
same,survivor count,"dose: 400.0 mg/kg/injection, schedule: Q04DX003 (ip), vehicle: gum acacia",6 of 6
COC1(c2ccccc2)CN(Cc2ccccc2)CCO1 (centres undefined),survivor count,[4],5 of 6
ClC[P+](c1ccccc1)(c1ccccc1)c1ccccc1,survivor count,"dose: 12.0 mg/kg/injection, schedule: Q01DX009 (ip), vehicle: saline",4 of 6
same,survivor count,"dose: 25.0 mg/kg/injection, schedule: Q04DX003 (ip), vehicle: saline",1 of 6
same,survivor count,"dose: 50.0 mg/kg/injection, schedule: Q04DX003 (ip), vehicle: saline",0 of 6
COC(=O)C(F)C(Br)C(=O)OC (centres undefined),T/C,[1],141 % of control
same,T/C,[6],125 % of control [5 of 6 alive]
same,survivor count,[6],3 of 6
same,survivor count,[7],0 of 6
S=c1[nH]cc2cnccn12,T/C,[1],127 % of control
same,T/C,[6],127 and 130 % of control
same,survivor count,[7],4 of 6
same,survivor count,[10],1 of 6
same,survivor count,[8],6 of 6
OC(CNc1ccc(CSc2ccccc2)cc1)c1ccccc1 (centres undefined),T/C,"dose: 200.0 mg/kg/injection, schedule: Q01DX009 (ip), vehicle: other",132 % of control
O=C1CCCCC1Oc1ccccc1 (centres undefined),survivor count,[10],6 of 6
O=C1NC(=O)C(F)(F)C(O)N1 (centres undefined),T/C,"dose: 18.0 mg/kg/injection, schedule: Q01DX009 (ip), vehicle: saline",140 % of control
